In general, pKa refers to the negative logarithm of the acid dissociation constant. Read a low pKa as a stronger acid or weaker base.

Our source for the pKa values is patent US11183645B2, “Organic thin film and method for manufacturing organic thin film, organic electroluminescence element, display device, illumination device, organic thin film solar cell, thin film transistor, and coating composition” (NIPPON HOSO KYOKAI, priority 2015, dated 2021).

A short description of the series: physchem.

As to `C1CN=C2NCCCN2C1` [TBD, 1,5,7-triazabicyclo[4.4.0]deca-5-en], the pKa is 15.
